Measured values as given in patent US20210363269A1.
No constants are given. Whether binding was seen depends on the method and setting. Some binding calls cover weakened binding; strength is not graded here.

Target: T1, NOD mouse SIRP-α D1 domain (mouse (NOD strain))
T1 sequence: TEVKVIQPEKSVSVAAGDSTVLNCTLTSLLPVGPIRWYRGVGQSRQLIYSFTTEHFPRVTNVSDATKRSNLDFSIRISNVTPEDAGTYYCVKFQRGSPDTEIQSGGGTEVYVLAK
Assay: SPR

| Binder | binding |
| --- | --- |
| AB21c (antibody, V domains shown) VH: DVQLVESGGGVVRPGESLRLSCAASGFTFSSNAMSWVRQAPGKGLEWLAGISAGGSDTYYPASVKGRFTISRDNSKNTLYLQMNTLTAEDTAVYYCARETWNHLFDYWGLGTLVTVSS VL: ALTQPASVSANPGETVKIACSGGDYYSYYYGWYQQKAPGSALVTVIYSDDKRPSDIPSRFSGSASGSTATLTITGVRAEDEAVYYCGGYDYSTYANAFGAGTTLTVL | binds |
| AB25c (antibody, V domains shown) VH: DVQLVESGGGVVRPGESLRLSCEASGFTFSSNAMSWVRQAPGKGLEWVAGISSGSDTYYGDSVKGRLTISRDNSKNILYLQMNSLTAEDTAVYYCARETWNHLFDYWGLGTLVTVSS VL: ALTQPASVSANPGETVEITCSGGSYSSYYYAWYQQKSPGSAPVTLIYSDDKRPSNIPSRFSGSASGSTATLTITGVRAEDEAVYFCGGYDQSSYTNPFGAGTTLTVL | binds |
| AB27c (antibody, V domains shown) VH: DVQLVESGGGVVRPGESLRLSCAVSGFRFSSYAMSWVRQAPGKGLEWVSGISSGGDTYYVDSVKGRFTISRDNSKNTLYLQVNSLTAEDTAIYYCARETWNHLFDYWGLGTLVTVSS VL: ALTQPASVSADLGETVKITCSGGDSSSHYYGWYQQKSPGSAPVTVIYSDDERPSDIPSRFSGSASGSTATLTITGVRVEDEAIYYCGAYDGSTYANTFGAGTTLTVL | binds |
| AB66c (antibody, V domains shown) VH: DVQLVESGGGVVRPGESLRLSCAASGFTFSSYAMSWVRQAPGKGLEWLAGISAGGSDTYYIDSVKGRFTISRDNPKNSLYLQMSSLTAEDTAVYYCARETWNHLFDYWGLGTLVTVSS VL: ALTQPASVSANPGETVKITCSGGDYYSTYYAWYQQKSPGSAPVTVIHSDDKRPSDIPSRFSGSASGSAATLIITGVRVEDEAVYYCGGYDGRTYINTFGAGTTLTVL | binds |

Target: T1, NOD mouse SIRP-α D1 domain (mouse (NOD strain))
Assay: SPR, antibody immobilised on GLC chip

| Binder | binding |
| --- | --- |
| 136 variant with S12T in an otherwise all mut light chain (antibody, human IgG1, V domains shown) VH: EVQLVESGGGVVQPGRSLRLSCAASGFTFSSYDVNWVRQAPGKGLEWVSLISGSGEIIYYADSVKGRFTISRDNSKNTLYLQMNSLRAEDTAVYYCAKENNRYRFFDDWGQGTLVTVSS VL: EIVLTQSPGTLTLSPGERATLSCRASQSVYTYLAWYQQKPGQAPRLLIYGASSRATGIPDRFSGSGSGTEFTLTISSLQSEDFAVYYCQQYYDRPPLTFGGGTKVEIK | binds |
| 136 variant with S22T in an otherwise all mut light chain (antibody, human IgG1, V domains shown) VH: EVQLVESGGGVVQPGRSLRLSCAASGFTFSSYDVNWVRQAPGKGLEWVSLISGSGEIIYYADSVKGRFTISRDNSKNTLYLQMNSLRAEDTAVYYCAKENNRYRFFDDWGQGTLVTVSS VL: EIVLTQSPGTLSLSPGERATLTCRASQSVYTYLAWYQQKPGQAPRLLIYGASSRATGIPDRFSGSGSGTEFTLTISSLQSEDFAVYYCQQYYDRPPLTFGGGTKVEIK | binds |
| 136 variant with Q38E in an otherwise all mut light chain (antibody, human IgG1, V domains shown) VH: EVQLVESGGGVVQPGRSLRLSCAASGFTFSSYDVNWVRQAPGKGLEWVSLISGSGEIIYYADSVKGRFTISRDNSKNTLYLQMNSLRAEDTAVYYCAKENNRYRFFDDWGQGTLVTVSS VL: EIVLTQSPGTLSLSPGERATLSCRASQSVYTYLAWYQEKPGQAPRLLIYGASSRATGIPDRFSGSGSGTEFTLTISSLQSEDFAVYYCQQYYDRPPLTFGGGTKVEIK | binds |
| 136 wt (VL)/mut (VH) (antibody, human IgG1, V domains shown) VH: EVQLVESGGGVVQPGRSLRLSCAASGFTFSSYDVNWVRQAPGKGLEWVSLISGSGEIIYYADSVKGRFTISRDNSKNTLYLQMNSLRAEDTAVYYCAKENNRYRFFDDWGQGTLVTVSS VL: ETVLTQSPGTLTLSPGERATLTCRASQSVYTYLAWYQEKPGQAPRLLIYGASSRATGIPDRFSGSGSGTEFTLTISSLQSEDFAVYYCQQYYDRPPLTFGGGTKVEIK | binds |
| 136 mut/mut (antibody, human IgG1, V domains shown) VH: EVQLVESGGGVVQPGRSLRLSCAASGFTFSSYDVNWVRQAPGKGLEWVSLISGSGEIIYYADSVKGRFTISRDNSKNTLYLQMNSLRAEDTAVYYCAKENNRYRFFDDWGQGTLVTVSS VL: EIVLTQSPGTLSLSPGERATLSCRASQSVYTYLAWYQQKPGQAPRLLIYGASSRATGIPDRFSGSGSGTEFTLTISSLQSEDFAVYYCQQYYDRPPLTFGGGTKVEIK | binds |
| 136 variant with I2T in an otherwise all mut light chain (antibody, human IgG1, V domains shown) VH: EVQLVESGGGVVQPGRSLRLSCAASGFTFSSYDVNWVRQAPGKGLEWVSLISGSGEIIYYADSVKGRFTISRDNSKNTLYLQMNSLRAEDTAVYYCAKENNRYRFFDDWGQGTLVTVSS VL: ETVLTQSPGTLSLSPGERATLSCRASQSVYTYLAWYQQKPGQAPRLLIYGASSRATGIPDRFSGSGSGTEFTLTISSLQSEDFAVYYCQQYYDRPPLTFGGGTKVEIK | binds |
